Assay results taken from the supplement of paper PMC10849652.
The list shows a part of the results.

Chains of the proteins cited; added tags and fusions are not shown. Lines headed by an entry give the natural chain unless they say otherwise; changes in a name come on top.
UniProt Q9H0A8, whole entry, looked up: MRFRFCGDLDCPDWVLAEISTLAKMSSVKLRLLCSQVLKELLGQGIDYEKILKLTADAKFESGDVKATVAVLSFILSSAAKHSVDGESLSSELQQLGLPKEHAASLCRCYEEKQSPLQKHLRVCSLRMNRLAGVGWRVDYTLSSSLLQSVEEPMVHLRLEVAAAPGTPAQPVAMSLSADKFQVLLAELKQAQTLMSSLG
UniProt A4D0V7: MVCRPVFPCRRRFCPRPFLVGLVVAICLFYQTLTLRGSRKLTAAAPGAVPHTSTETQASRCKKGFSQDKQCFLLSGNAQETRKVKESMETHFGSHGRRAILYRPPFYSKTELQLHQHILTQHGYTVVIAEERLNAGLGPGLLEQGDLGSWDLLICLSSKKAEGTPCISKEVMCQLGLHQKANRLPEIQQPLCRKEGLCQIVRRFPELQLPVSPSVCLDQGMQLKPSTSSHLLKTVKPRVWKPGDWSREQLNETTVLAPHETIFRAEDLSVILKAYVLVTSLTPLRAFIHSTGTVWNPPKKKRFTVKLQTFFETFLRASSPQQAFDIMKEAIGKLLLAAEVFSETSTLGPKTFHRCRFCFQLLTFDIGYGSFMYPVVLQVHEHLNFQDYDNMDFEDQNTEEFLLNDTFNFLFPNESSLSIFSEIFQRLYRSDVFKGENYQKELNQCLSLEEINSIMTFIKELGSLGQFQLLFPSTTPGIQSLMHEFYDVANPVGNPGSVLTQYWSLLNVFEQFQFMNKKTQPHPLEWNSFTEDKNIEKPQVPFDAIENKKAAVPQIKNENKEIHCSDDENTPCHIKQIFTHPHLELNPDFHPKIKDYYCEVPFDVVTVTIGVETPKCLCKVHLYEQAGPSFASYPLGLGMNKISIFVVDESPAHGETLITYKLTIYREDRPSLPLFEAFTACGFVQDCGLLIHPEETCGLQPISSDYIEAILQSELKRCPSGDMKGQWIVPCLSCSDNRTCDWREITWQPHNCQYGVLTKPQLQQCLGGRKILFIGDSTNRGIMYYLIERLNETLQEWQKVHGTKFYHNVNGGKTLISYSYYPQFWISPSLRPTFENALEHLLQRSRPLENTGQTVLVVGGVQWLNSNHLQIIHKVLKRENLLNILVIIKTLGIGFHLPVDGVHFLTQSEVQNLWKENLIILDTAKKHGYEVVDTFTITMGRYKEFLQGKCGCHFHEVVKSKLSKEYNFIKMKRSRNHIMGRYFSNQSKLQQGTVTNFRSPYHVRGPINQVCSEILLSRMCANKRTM
UniProt Q49B96: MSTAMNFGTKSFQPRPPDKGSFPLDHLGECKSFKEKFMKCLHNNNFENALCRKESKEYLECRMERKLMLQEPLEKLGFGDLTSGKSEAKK
UniProt Q12887: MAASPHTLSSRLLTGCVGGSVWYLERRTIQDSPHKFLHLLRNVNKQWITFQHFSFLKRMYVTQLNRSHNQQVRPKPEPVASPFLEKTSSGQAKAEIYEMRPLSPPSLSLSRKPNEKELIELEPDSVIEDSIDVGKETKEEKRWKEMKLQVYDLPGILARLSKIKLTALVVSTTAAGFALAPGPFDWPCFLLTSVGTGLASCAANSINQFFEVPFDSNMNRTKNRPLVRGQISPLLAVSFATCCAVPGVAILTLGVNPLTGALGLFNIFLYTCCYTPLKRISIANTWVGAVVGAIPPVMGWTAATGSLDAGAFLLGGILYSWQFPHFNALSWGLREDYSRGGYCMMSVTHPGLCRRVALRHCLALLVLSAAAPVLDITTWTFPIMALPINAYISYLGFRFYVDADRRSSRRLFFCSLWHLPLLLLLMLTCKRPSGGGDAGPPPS
UniProt P02511: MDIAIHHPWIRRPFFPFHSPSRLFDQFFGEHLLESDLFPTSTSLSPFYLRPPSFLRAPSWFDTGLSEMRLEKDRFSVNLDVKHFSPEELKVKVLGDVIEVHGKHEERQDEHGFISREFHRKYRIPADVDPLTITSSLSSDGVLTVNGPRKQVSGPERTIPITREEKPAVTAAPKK
UniProt P49747: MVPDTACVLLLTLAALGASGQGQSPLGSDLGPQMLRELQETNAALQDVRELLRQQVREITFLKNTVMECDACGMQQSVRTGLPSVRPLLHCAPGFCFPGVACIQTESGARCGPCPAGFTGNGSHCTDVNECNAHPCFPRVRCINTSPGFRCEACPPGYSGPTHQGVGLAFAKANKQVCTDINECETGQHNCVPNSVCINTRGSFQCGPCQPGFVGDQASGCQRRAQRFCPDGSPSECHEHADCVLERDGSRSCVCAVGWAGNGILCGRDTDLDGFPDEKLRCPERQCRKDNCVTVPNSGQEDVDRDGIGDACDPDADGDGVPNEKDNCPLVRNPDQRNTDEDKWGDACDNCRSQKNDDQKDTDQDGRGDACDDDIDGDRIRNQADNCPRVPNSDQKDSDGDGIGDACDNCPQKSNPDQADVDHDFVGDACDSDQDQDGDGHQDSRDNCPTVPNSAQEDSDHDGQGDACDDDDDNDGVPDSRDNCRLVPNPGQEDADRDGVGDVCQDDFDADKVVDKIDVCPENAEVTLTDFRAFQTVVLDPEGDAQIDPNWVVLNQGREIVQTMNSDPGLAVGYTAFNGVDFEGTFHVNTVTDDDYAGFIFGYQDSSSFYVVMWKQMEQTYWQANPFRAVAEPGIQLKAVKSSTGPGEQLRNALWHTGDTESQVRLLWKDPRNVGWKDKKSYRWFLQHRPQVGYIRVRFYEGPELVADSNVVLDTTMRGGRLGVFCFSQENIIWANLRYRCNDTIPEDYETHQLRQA
UniProt P53621: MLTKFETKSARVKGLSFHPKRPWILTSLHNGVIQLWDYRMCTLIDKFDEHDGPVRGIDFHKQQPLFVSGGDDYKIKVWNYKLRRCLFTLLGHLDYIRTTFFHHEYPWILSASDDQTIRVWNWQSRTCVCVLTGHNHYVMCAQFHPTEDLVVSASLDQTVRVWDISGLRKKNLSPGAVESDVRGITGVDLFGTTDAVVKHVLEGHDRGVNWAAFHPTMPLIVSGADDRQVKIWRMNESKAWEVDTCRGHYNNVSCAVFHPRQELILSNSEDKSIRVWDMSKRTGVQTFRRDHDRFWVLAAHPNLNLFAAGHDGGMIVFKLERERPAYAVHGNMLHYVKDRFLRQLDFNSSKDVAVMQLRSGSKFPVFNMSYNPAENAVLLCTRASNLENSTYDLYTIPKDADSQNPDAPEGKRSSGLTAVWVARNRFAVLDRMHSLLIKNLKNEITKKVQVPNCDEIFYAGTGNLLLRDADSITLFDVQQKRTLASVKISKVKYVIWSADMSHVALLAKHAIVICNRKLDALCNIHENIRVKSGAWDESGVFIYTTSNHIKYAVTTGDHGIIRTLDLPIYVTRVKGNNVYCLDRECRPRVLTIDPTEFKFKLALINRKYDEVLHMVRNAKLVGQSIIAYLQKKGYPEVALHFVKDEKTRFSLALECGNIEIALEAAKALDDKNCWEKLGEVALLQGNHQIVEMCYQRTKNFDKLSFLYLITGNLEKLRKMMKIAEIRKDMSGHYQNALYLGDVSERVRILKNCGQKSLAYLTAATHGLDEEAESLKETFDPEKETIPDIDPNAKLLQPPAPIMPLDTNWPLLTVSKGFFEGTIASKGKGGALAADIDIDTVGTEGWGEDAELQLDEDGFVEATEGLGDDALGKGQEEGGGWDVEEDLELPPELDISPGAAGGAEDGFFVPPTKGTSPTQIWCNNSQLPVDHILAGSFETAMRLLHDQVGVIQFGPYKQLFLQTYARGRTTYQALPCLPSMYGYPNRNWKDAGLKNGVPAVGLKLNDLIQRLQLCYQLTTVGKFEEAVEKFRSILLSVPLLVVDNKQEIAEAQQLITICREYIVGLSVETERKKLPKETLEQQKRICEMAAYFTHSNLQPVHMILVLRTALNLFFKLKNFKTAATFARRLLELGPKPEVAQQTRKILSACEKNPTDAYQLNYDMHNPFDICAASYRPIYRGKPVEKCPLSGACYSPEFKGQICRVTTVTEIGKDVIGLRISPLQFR
UniProt Q96H96: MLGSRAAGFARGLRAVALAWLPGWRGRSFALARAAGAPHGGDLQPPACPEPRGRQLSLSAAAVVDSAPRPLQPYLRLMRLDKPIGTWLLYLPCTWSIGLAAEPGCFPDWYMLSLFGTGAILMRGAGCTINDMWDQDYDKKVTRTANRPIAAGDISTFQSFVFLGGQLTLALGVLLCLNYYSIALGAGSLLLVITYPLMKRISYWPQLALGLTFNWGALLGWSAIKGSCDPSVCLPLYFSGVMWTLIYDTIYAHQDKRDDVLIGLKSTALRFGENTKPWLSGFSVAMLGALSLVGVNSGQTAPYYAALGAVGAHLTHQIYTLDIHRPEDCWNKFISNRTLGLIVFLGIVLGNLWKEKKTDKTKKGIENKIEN
UniProt Q9BRF8, whole entry, looked up: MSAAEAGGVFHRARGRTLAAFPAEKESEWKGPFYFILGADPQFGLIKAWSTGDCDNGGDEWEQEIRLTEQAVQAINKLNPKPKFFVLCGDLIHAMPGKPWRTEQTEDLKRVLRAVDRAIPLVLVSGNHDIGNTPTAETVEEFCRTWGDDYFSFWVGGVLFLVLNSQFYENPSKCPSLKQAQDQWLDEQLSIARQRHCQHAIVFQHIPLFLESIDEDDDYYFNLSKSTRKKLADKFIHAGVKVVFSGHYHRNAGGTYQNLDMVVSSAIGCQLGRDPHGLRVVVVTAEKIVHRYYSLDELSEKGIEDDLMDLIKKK
UniProt Q9NQ92: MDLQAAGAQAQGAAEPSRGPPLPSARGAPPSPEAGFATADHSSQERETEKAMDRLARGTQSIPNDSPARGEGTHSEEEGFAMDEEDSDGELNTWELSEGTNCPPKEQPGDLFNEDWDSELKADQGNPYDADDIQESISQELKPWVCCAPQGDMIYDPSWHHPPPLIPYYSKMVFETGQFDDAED
UniProt Q96I36: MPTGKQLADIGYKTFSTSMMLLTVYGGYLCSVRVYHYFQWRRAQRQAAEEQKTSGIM
UniProt Q8N8Q8: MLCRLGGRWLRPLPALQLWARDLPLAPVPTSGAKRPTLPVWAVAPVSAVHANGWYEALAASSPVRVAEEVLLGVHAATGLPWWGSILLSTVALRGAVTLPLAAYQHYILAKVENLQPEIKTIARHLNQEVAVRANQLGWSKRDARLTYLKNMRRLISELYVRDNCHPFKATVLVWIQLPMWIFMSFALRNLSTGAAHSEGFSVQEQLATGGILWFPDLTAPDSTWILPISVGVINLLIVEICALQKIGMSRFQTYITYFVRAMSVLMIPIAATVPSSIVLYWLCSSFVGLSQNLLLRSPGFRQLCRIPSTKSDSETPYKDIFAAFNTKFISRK
UniProt O75131: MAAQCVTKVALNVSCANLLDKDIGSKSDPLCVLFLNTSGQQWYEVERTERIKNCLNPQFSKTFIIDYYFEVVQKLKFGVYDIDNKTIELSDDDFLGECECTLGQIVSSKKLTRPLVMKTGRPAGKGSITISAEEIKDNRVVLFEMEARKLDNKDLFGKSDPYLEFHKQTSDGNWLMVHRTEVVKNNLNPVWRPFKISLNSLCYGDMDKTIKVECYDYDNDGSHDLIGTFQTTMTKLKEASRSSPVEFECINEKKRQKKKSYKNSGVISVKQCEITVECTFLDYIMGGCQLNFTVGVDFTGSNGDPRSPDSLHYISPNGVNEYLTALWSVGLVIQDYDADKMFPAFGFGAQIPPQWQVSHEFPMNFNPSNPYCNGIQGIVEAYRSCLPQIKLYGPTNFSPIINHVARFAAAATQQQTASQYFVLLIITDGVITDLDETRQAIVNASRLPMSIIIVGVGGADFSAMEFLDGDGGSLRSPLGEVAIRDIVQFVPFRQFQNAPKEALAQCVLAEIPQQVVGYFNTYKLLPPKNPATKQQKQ
UniProt Q6UXH1: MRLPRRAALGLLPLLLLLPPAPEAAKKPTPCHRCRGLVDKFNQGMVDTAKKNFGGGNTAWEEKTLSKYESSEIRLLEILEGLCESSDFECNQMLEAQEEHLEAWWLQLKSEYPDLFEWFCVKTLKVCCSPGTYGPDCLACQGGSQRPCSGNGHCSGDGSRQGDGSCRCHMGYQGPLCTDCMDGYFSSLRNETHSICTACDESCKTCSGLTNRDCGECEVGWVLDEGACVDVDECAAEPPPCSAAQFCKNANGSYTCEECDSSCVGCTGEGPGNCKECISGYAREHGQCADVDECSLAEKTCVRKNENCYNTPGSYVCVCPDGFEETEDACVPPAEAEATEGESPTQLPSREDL
UniProt Q9Y6G5, whole entry, looked up: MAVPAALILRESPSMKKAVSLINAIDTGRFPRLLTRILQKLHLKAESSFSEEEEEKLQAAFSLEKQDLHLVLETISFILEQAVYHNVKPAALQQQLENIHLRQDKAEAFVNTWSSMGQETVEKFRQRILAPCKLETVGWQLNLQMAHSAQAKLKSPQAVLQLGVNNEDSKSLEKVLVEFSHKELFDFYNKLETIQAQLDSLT
UniProt P61923: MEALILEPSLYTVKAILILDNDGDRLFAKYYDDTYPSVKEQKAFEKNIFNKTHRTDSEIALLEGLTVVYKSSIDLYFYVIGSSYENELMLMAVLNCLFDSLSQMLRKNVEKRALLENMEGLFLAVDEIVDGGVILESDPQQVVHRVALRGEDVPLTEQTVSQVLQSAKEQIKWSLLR

Compound: c1cn2cc(-c3ccc4cn[nH]c4c3)nc(Nc3ccc(N4CCOCC4)cc3)c2n1 [entospletinib]
Experiment: log2 fold change, soluble protein after heating vs DMSO (PISA); higher = thermal stabilisation; K562 cells, 10 uM, 30 min; active = over 0.2 and 3.5 SD of the protein, either way, in both replicates (recomputed)
Outline: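 K562 cells at 2×10^6 cells/mL were exposed to 10 μM compound for 30 min, then aliquots were heated for 3 min across 48°C-58°C, pooled, and extracted in PBS containing 0.5% NP-40 at 4°C. The supernatant after 21,000xg for 90 min was taken as soluble protein and measured by TMTpro 16plex LC-MS/MS with channel sums equalised. Thermal stability is reported relative to control samples, with values from duplicates. Fold changes are given on a log2 scale.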

Target	log2 fold change
COMMD4 (UniProt Q9H0A8)	inactive: -0.103
CRELD1 isoform 2 (UniProt Q96HD1)	inactive: 0.033
CRACR2A isoform 2 (UniProt Q9BSW2)	inactive: 0.025
CPED1 (UniProt A4D0V7)	inactive: -0.037
COX19 (UniProt Q49B96)	inactive: -0.016
COX10 (UniProt Q12887)	inactive: -0.056
COLGALT1 (UniProt Q8NBJ5)	inactive: 0.002
CRIP2 isoform 2 (UniProt P52943)	inactive: 0.014
COQ8A (UniProt Q8NI60)	inactive: 0.103
CRPPA (UniProt A4D126)	inactive: 0.031
CRYAB (UniProt P02511)	inactive: -0.037
COMP (UniProt P49747)	inactive: 0.292
COPA isoform 2 (UniProt P53621)	inactive: -0.007
COQ2 (UniProt Q96H96)	inactive: 0.047
CORO1A (UniProt P31146)	inactive: 0.039
CPPED1 (UniProt Q9BRF8)	inactive: -0.028
COPRS (UniProt Q9NQ92)	inactive: 0.043
COX14 (UniProt Q96I36)	inactive: 0.042
COX18 (UniProt Q8N8Q8)	inactive: 0.036
CPNE3 (UniProt O75131)	inactive: 0
COPS6 (UniProt Q7L5N1)	inactive: 0.04
CPVL (UniProt Q9H3G5)	inactive: -0.16
CSNK1G2 (UniProt P78368)	inactive: 0.021
COPB2 (UniProt P35606)	inactive: 0.007
CRELD2 isoform 5 (UniProt Q6UXH1)	inactive: 0.068
COMMD10 (UniProt Q9Y6G5)	inactive: -0.037
COPZ1 isoform 4 (UniProt P61923)	inactive: 0.016
COMMD9 (UniProt Q9P000)	inactive: 0.015

For convenience, part of the list above.
Target	log2 fold change
COX18 (UniProt Q8N8Q8)	inactive: 0.036
CPNE3 (UniProt O75131)	inactive: 0
